Some of the results follow.
These sequences were tested against OsWRKY34 (Oryza sativa, UniProt Q0JBA9 1-250) (assay: protein-binding microarray (RPBM); PBS, 2% BSA, 51.3 ng/ul salmon testes DNA, 50 uM zinc acetate, 200 nM TF, 25 C, 1 h; high values mean tight binding). Conditions: protein: recombinant; tags: N-terminal polyhistidine and DsRed monomer fusion (pET32a); label: CyDye5-dUTP incorporated in the synthesized complementary strand; 3' TTTTT single-stranded linker to array surface; dsDNA, one strand shown.
Outline: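 A custom Agilent array was converted to double-stranded form by primer extension with Cy5-dUTP and blocked with 2% BSA. Protein at 200 nM in PBS with 2% BSA, salmon testes DNA and 50 µM zinc acetate was applied for 1 h at 25 °C, followed by washing. The proteins were polyhistidine–DsRed N-terminal fusions of transcription factors, expressed in E. coli BL21-CodonPlus and Ni–NTA-purified. The binding signal is per-feature fluorescence intensity (arbitrary units) from an Axon 4000B scanner.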

The chains behind the UniProt entries cited, without tags or fusion partners.
UniProt Q0JBA9, entry or part of it: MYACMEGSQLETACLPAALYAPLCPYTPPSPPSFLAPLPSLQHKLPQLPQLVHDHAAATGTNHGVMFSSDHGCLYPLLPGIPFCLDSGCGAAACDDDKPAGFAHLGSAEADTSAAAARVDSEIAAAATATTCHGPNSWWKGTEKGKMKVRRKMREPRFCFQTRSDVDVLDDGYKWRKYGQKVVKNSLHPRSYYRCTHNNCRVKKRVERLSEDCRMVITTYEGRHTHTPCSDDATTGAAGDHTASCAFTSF

Sequence | binding signal
ACAAATGTAGTATTACTCTCTCCGTCCCATAATATAAATACGGAGTCACCTAGTGCAG | 9230 fluorescence intensity (a.u.)
TCTCTCTCTCTCTCTCTCTCTTCTCTCTCCAGTCCAATCTCGGAGTCACCTAGTGCAG | 8140 fluorescence intensity (a.u.)
GCACGAACGACGGCCACCGCCATGCCCACTGTTCATCTCCCGGAGTCACCTAGTGCAG | 8730 fluorescence intensity (a.u.)
GCCCGGCAGCCACACAGTCCGCCCGCCACCCTTAAAATCCCGGAGTCACCTAGTGCAG | 8300 fluorescence intensity (a.u.)
CTCTTGCTCCTTGAAGGTGTACACTAGTTCTGCTGCTCTCCGGAGTCACCTAGTGCAG | 8620 fluorescence intensity (a.u.)
CAGCTTTGGTCAAGAACTATGCCAATTGTAACAGCATTTCCGGAGTCACCTAGTGCAG | 10200 fluorescence intensity (a.u.)
AAGGGTCATCGGGTGGTCCCCACATGTCATACAGATAATACGGAGTCACCTAGTGCAG | 8600 fluorescence intensity (a.u.)
CAACGGCGGTGGCGGCGGCGGCGGCGGCGGGGCGGCGTCGCGGAGTCACCTAGTGCAG | 8370 fluorescence intensity (a.u.)
GTCATTTTGGACTCACCTTTGTCACTTGGCGCCTCTTTCACGGAGTCACCTAGTGCAG | 10700 fluorescence intensity (a.u.)
CTCACCGAGACTAGCCGTTGCCTCGCGGCCATCGCCTTTCCGGAGTCACCTAGTGCAG | 8630 fluorescence intensity (a.u.)
CGTGTTCTTGCCTGCGTATATACGGTGTACGTACACACGTCGGAGTCACCTAGTGCAG | 8870 fluorescence intensity (a.u.)
CACACACAAACTTTCAACTTTTCCGTCACGTCGTTCCAATCGGAGTCACCTAGTGCAG | 12900 fluorescence intensity (a.u.)
TGTCCTTGAAACCGCTTTACTTCTTTATCTGACTTTTGAACGGAGTCACCTAGTGCAG | 8180 fluorescence intensity (a.u.)
AATTAGTTTGATGTTATAAGCGTCATGTTTTTTCCATAAACGGAGTCACCTAGTGCAG | 9620 fluorescence intensity (a.u.)
ATCGATCGCCCAACCGACCAACCAGCTAGTCCATGTTTCTCGGAGTCACCTAGTGCAG | 10700 fluorescence intensity (a.u.)
ATCATCGTTGCCTGGTGCTGTATAGGTTTGGTGAGCCCATCGGAGTCACCTAGTGCAG | 8040 fluorescence intensity (a.u.)
GGAATTTTGGCCCCTTAAATTGTTGTATAATTGAAGCTTTCGGAGTCACCTAGTGCAG | 8130 fluorescence intensity (a.u.)
CACCTACCCCATTTTCTTCTACGCCTACCACACTACTACCCGGAGTCACCTAGTGCAG | 10100 fluorescence intensity (a.u.)
ACGTGATTGATGGATGGAGCTAACCGCGCGTGCCCGACACCGGAGTCACCTAGTGCAG | 8340 fluorescence intensity (a.u.)
TTCCTTGTCTCCTACTGCTTACTCCCTCCGTCTCAAAATACGGAGTCACCTAGTGCAG | 8510 fluorescence intensity (a.u.)
ATCCACCTAACAAGTTTATGTACCACCAATGCAATTTACTCGGAGTCACCTAGTGCAG | 8780 fluorescence intensity (a.u.)

Sequence | binding signal
CCTTTTCTTTCACCTTTCTCACCTGCCGGTCTCCCTCGAGCGGAGTCACCTAGTGCAG | 8220 fluorescence intensity (a.u.)
CAGTAACCAACGCTCATTCCTATACTACTGTACCTGCCAACGGAGTCACCTAGTGCAG | 11100 fluorescence intensity (a.u.)
CATGCTTCTATTTGATTGACCTTCATCCTCATGTTAACCTCGGAGTCACCTAGTGCAG | 11600 fluorescence intensity (a.u.)
ATATGCCCACCCAAGGGTTTTTTCCCCTGGAACGCGCTGCCGGAGTCACCTAGTGCAG | 8130 fluorescence intensity (a.u.)
TCCCTGAACGGGTTGCATGTGCATGTTTCTTCTCTTCTTCCGGAGTCACCTAGTGCAG | 10600 fluorescence intensity (a.u.)
GAATCCTACTTCTCGCAGGGGCAATCTTGTACTCACAAAACGGAGTCACCTAGTGCAG | 9360 fluorescence intensity (a.u.)
TTTTTATATTATTTATACTCCTTCCCTTTTACGTTTCATACGGAGTCACCTAGTGCAG | 9280 fluorescence intensity (a.u.)
GCATAACTAATGGTCTGTTTACTTTGATGGCATTTTCAATCGGAGTCACCTAGTGCAG | 9570 fluorescence intensity (a.u.)
CCTTGTTTGGCAAAGCTCATGTCCTGGCCCATATGATATACGGAGTCACCTAGTGCAG | 8340 fluorescence intensity (a.u.)
TTCTTCTTGGTGGTGGTGGGGCCTGGAAACTATGTGACTTCGGAGTCACCTAGTGCAG | 18200 fluorescence intensity (a.u.)
CAAGGTTTGTTTTCTTATCAGTTACTACTGCTTTTGTGGTCGGAGTCACCTAGTGCAG | 11100 fluorescence intensity (a.u.)
TGTAAGAGGTGTGTAACTCGCCAGTTTTGCTTCAACCACACGGAGTCACCTAGTGCAG | 8890 fluorescence intensity (a.u.)
TCGTCAGTTTTTTTTCATCTCATTTTAGCACTACTTCGACCGGAGTCACCTAGTGCAG | 9590 fluorescence intensity (a.u.)
GGTGTGCTGAACTTGTGGAGTAACTTTTTTCTGGATTCCTCGGAGTCACCTAGTGCAG | 8420 fluorescence intensity (a.u.)
CCTGGGGAGGGTACTCCTCCGTATTTAGCCTCGGTTGTATCGGAGTCACCTAGTGCAG | 8790 fluorescence intensity (a.u.)
GACCACACAGCACCAACCAACTAAACCACCACCACCACCACGGAGTCACCTAGTGCAG | 8500 fluorescence intensity (a.u.)
CACCAACCTTGCTAGCACTATATATCTAGGCGTCAATTGACGGAGTCACCTAGTGCAG | 8090 fluorescence intensity (a.u.)
ATTTCAGACTAGGTACTTTTGTTATTTTAATTTACTTTGGCGGAGTCACCTAGTGCAG | 8920 fluorescence intensity (a.u.)
TGTGTTCCTTTAGTTCTCTTCACACGCATTACTTAGGCCACGGAGTCACCTAGTGCAG | 9080 fluorescence intensity (a.u.)
TGGCAGGCAGGGGTGGCTTCGCGGTGGGCAGCAGCGGCTTCGGAGTCACCTAGTGCAG | 8650 fluorescence intensity (a.u.)
GGATCACGCATTTGACTTTGCCTTTTTTTTCGACTTCTTGCGGAGTCACCTAGTGCAG | 12100 fluorescence intensity (a.u.)

Sequence | binding signal
GTCAAACGTTGGACACGGATTTCTACGGCTGCACTTATTTCGGAGTCACCTAGTGCAG | 8192 fluorescence intensity (a.u.)
AGCGAACGTGGTTATGTATTTTTGGCTTGGACTATTTTTTCGGAGTCACCTAGTGCAG | 9120 fluorescence intensity (a.u.)
TAAGTATTTCCTTTCTTTGCATTTTACCGCCTTGCTATTTCGGAGTCACCTAGTGCAG | 8200 fluorescence intensity (a.u.)
CTCTCACACACTTCACTCGGTCTTCCTCTTCTTCTTCTTTCGGAGTCACCTAGTGCAG | 12300 fluorescence intensity (a.u.)
GATAGGGTTAGGGTTAGGGTTTTCCCTGGTCCGCATCTTCCGGAGTCACCTAGTGCAG | 9320 fluorescence intensity (a.u.)
GTTCTCGATGTGTTCTAAAATTTTGTTGTTTATAATTTTTCGGAGTCACCTAGTGCAG | 8190 fluorescence intensity (a.u.)
CGGTCGACCCACCGTCTGCCACGTCAGCTTGCCGCCCACCCGGAGTCACCTAGTGCAG | 10100 fluorescence intensity (a.u.)
CATTAGAGTCTTGTTTTAGTTGCTGATCATATTCTCCTTTCGGAGTCACCTAGTGCAG | 13200 fluorescence intensity (a.u.)
TGCTGGTGGTGGTGGTGGGGATCGAGCCGCTCGCTTCGACCGGAGTCACCTAGTGCAG | 11700 fluorescence intensity (a.u.)
ATCTGAGCCACACATCCGCTGAAATAACCGTGCAGTTTCACGGAGTCACCTAGTGCAG | 10800 fluorescence intensity (a.u.)
GTGGACGTTTTTGACTTTGTACTTTCAACGTTTGACCATTCGGAGTCACCTAGTGCAG | 13900 fluorescence intensity (a.u.)
CTCGCCCATTCTACTTCCATTCTCTTCACACCATCACATGCGGAGTCACCTAGTGCAG | 10100 fluorescence intensity (a.u.)
TCTCGTTCATCCTCTCCCTGTCAATTGTCGCGAGTCTTCTCGGAGTCACCTAGTGCAG | 8620 fluorescence intensity (a.u.)
CAGCCATAAACATTGTCCATTTGTCCTTGTAAATCAATCGCGGAGTCACCTAGTGCAG | 8270 fluorescence intensity (a.u.)
ACAGCCATGGTCGGACCGATCTTATCTGCAAACGCCCATGCGGAGTCACCTAGTGCAG | 8820 fluorescence intensity (a.u.)
TCGCACAGCATTCATTGAGGACTTCTTTTCCACTGATCCTCGGAGTCACCTAGTGCAG | 8080 fluorescence intensity (a.u.)
TTCATGCAGCTCTACGTCGCCATCTTTTGTATAGAAAATTCGGAGTCACCTAGTGCAG | 8280 fluorescence intensity (a.u.)
CATATCCCGACTTTGTGCAGTCTGTAATTGTGCTATGTTACGGAGTCACCTAGTGCAG | 8710 fluorescence intensity (a.u.)
CCAATCATCACTATTCTCCTTTACCTACTTTTACTTATCACGGAGTCACCTAGTGCAG | 8240 fluorescence intensity (a.u.)
GTTCTTGTAGTATACGTAGCTAGCTAGGTGGTGTGGTGTACGGAGTCACCTAGTGCAG | 8900 fluorescence intensity (a.u.)
TAACTTCTCAACTTTTTCACCATCTAAACACAGTCTTCATCGGAGTCACCTAGTGCAG | 8400 fluorescence intensity (a.u.)

Some values from the entries so far:
binding signal, CTCGCCCATTCTACTTCCATTCTCTTCACACCATCACATGCGGAGTCACCTAGTGCAG reads 10100 fluorescence intensity (a.u.)
binding signal, AGCGAACGTGGTTATGTATTTTTGGCTTGGACTATTTTTTCGGAGTCACCTAGTGCAG reads 9120 fluorescence intensity (a.u.)
binding signal, GATAGGGTTAGGGTTAGGGTTTTCCCTGGTCCGCATCTTCCGGAGTCACCTAGTGCAG reads 9320 fluorescence intensity (a.u.)

Next part.

Sequence | binding signal
CCTACCCTTCCCGGTAACTTATTTATCCTCCCAAATCCTCCGGAGTCACCTAGTGCAG | 9350 fluorescence intensity (a.u.)
ACATAATTAGTTTATCTCTCCTCAAGCTGGTGCATCTCTCCGGAGTCACCTAGTGCAG | 8190 fluorescence intensity (a.u.)
CTCTCTTATCTTCTCTTCTTTCTCCCTTGTGCATGCGGAGCGGAGTCACCTAGTGCAG | 10500 fluorescence intensity (a.u.)
AGATGCCTCGTGCTAGGTTTGATTGGTTGGTTGGTTGGTACGGAGTCACCTAGTGCAG | 19400 fluorescence intensity (a.u.)
ACTGCCACGCGTACGCCATGTAGACCAAAACCACCGTGGACGGAGTCACCTAGTGCAG | 8110 fluorescence intensity (a.u.)
AAATTTCTCATGGACTGTTATCTGCTTGTTCTGCTTGAAACGGAGTCACCTAGTGCAG | 9720 fluorescence intensity (a.u.)
CATCTATTCTTTTGTACTCTGTGATTTTCTATATCAATCTCGGAGTCACCTAGTGCAG | 8650 fluorescence intensity (a.u.)
AATTATTCCGGGCTTGGGACGTTGTAAAAAACATAAAATTCGGAGTCACCTAGTGCAG | 8770 fluorescence intensity (a.u.)
TACGATTTCTATTATTTCCAAATCAAATTGCCCCACTATTCGGAGTCACCTAGTGCAG | 8500 fluorescence intensity (a.u.)
CTCTCGTGTTCTCTCCCAATCTCTTCTTGCGGCGGAAGCACGGAGTCACCTAGTGCAG | 8320 fluorescence intensity (a.u.)
AGAGAAACATGTCATTATCATATACTCCTTTCATCCTATACGGAGTCACCTAGTGCAG | 8460 fluorescence intensity (a.u.)
ACATTGTTATCTACTATCTGTTTATATGGTTTTCTACTTCCGGAGTCACCTAGTGCAG | 8340 fluorescence intensity (a.u.)
AATTTCTGATTGTTTGTCAGTTCAGCGTTGATGCTGTAATCGGAGTCACCTAGTGCAG | 8510 fluorescence intensity (a.u.)
ATTTTTATTCTCTCTCTCCCGACTCCCGAGCCGTATCATCCGGAGTCACCTAGTGCAG | 8840 fluorescence intensity (a.u.)
ACACGAGCTTCTCCGCCCTCTTGTCCTTCGGTCAGCACCGCGGAGTCACCTAGTGCAG | 12000 fluorescence intensity (a.u.)
AATGTTTGACACCGTTGATTTTTTTAGCACATGTTTCACCCGGAGTCACCTAGTGCAG | 8960 fluorescence intensity (a.u.)
TTCATATACACATATAGTTTTACATATTTCATATTTTTTTCGGAGTCACCTAGTGCAG | 9360 fluorescence intensity (a.u.)
ACACTGTCTTCTCTCTCTCTCTCTCTCTCTCTCTCTGCTTCGGAGTCACCTAGTGCAG | 11900 fluorescence intensity (a.u.)
CTCCGCGCCGCGGCCGCCTCCCTCGACTCCGGCGACCACCCGGAGTCACCTAGTGCAG | 8330 fluorescence intensity (a.u.)
GTGTGTGCCTGTGTAGTACACGCTATTCTTCTTACCTTGTCGGAGTCACCTAGTGCAG | 9010 fluorescence intensity (a.u.)
AACGATTTCCTGCTGTCCTTCGTCGTTTCGTTTAGCATATCGGAGTCACCTAGTGCAG | 11600 fluorescence intensity (a.u.)
